Measured values taken from PubChem BioAssay AID200 (DTP/NCI, 2004).
The list is a part of this screen's results and no random one: it gathers tests that were run many times, whatever their T/C, doses with no T/C, and many T/C values between a quarter and a half above the control. Further doses and runs are listed elsewhere. T/C gives the treated animals as a percentage of the vehicle group. Some doses have a count of surviving animals in place of a T/C: the source files T/C as zero there, which appears to mark a toxic dose or a test without result, not a measured value. Some survivor counts are full or nearly so, which does not show that the dose was tolerated: survival well below the control is almost never listed, so the zero probably covers shortened survival too. Counts of survivors are from the toxicity check (mostly the fifth day) where no day follows; animals may have died later. Schedules are NCI's codes, read here as Q, the interval in days (D) or hours (H), X, the number of doses. Some doses were run more than once; the values are given in rising order. For survival time, this PubChem deposit counts one and a half times the control or more as active, and values a quarter to a half above the control carry no call in these data; other NCI protocols may use other cut-offs. Some T/C values carry the count of animals alive at the toxicity check (mostly the fifth day); without a count, all were alive then.

System: B6C3F1 mice, B16 melanoma ip, median survival T/C
Experiment: NCI In Vivo Anticancer Drug Screen. Data for tumor model B16 Melanoma (intraperitoneal) in B6C3F1 mice
Conditions: T/C endpoint: median survival time, higher T/C = longer survival
In short: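 Mice bearing transplanted tumor were dosed with compound or vehicle, and survival was recorded. Activity is expressed as the treated-group measurement (T) divided by the vehicle control measurement (C).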

[1] = dose: 200.0 mg/kg/injection, schedule: Q01DX009 (ip), vehicle: Klucel (hydroxypropylcellulose) (HPC)
[2] = dose: 25.0 mg/kg/injection, schedule: Q01DX009 (ip), vehicle: saline with Tween-80
[3] = dose: 50.0 mg/kg/injection, schedule: Q01DX009 (ip), vehicle: saline
[4] = dose: 100.0 mg/kg/injection, schedule: Q01DX009 (ip), vehicle: saline with Tween-80
[5] = dose: 400.0 mg/kg/injection, schedule: Q01DX009 (ip), vehicle: Klucel (hydroxypropylcellulose) (HPC)
[6] = dose: 50.0 mg/kg/injection, schedule: Q01DX009 (ip), vehicle: saline with Tween-80
[7] = dose: 200.0 mg/kg/injection, schedule: Q01DX009 (ip), vehicle: saline with Tween-80
[8] = dose: 400.0 mg/kg/injection, schedule: Q01DX009 (ip), vehicle: saline with Tween-80
[9] = dose: 100.0 mg/kg/injection, schedule: Q01DX009 (ip), vehicle: saline
[10] = dose: 200.0 mg/kg/injection, schedule: Q01DX009 (ip), vehicle: saline

O=NN(CCF)C(=O)NC1CCC(=O)NC1=O (configuration not stated)
survivor count (dose: 120.0 mg/kg/injection, schedule: Q01DX001 (ip), vehicle: saline): 5 of 10 on day 6

CSc1ncc2ncn(C3OC(CO)C(O)C3O)c2n1 (configuration not stated)
survivor count (dose: 100.0 mg/kg/injection, schedule: Q01DX009 (ip), vehicle: Klucel (hydroxypropylcellulose) (HPC)): 10 of 10
survivor count [1]: 10 of 10

CCCCCCCCCCCCCCCC[N+]1(C)CCN(SN2CC[N+](C)(CCCCCCCCCCCCCCCC)CC2)CC1
survivor count [2]: 10 of 10
survivor count [3]: 5 of 10
survivor count [4]: 10 of 10

Cc1cc(N2C(=O)CCSC2=S)ccc1Cl
survivor count (dose: 50.0 mg/kg/injection, schedule: Q01DX009 (ip), vehicle: Klucel (hydroxypropylcellulose) (HPC)): 10 of 10
survivor count [5]: 3 of 10 and 9 of 10

CC(C)CC(NC(=O)CCl)C(=O)O (configuration not stated)
survivor count [6]: 10 of 10
survivor count [4]: 10 of 10
survivor count [7]: 10 of 10
survivor count [8]: 5 of 10

C/C=C/C=C1/OC(C)=C(C(C)=O)C1=O
survivor count [8]: 5 of 10

c1cc(-c2cc3ccc(C4=NCCN4)cc3[nH]2)ccc1C1=NCCN1
survivor count (dose: 25.0 mg/kg/injection, schedule: Q01DX009 (ip), vehicle: suspension in saline): 9 of 10
survivor count [3]: 10 of 10
survivor count (dose: 50.0 mg/kg/injection, schedule: Q01DX009 (ip), vehicle: suspension in saline): 4 of 10
survivor count [9]: 0 of 10
survivor count (dose: 100.0 mg/kg/injection, schedule: Q01DX009 (ip), vehicle: suspension in saline): 0 of 10

O=C1c2ccccc2C(Cl)(c2ccc(Cl)cc2)c2ccc(Cl)cc21 (configuration not stated)
survivor count (dose: 12.5 mg/kg/injection, schedule: Q01DX009 (ip), vehicle: saline with Tween-80): 4 of 10
T/C [4]: 134 % of control
survivor count [7]: 7 of 10
survivor count [8]: 7 of 10

COc1cc(OC)c(OC)cc1/C=C\c1ccnc2ccccc12
T/C [1]: 137 % of control
survivor count [5]: 0 of 8

Oc1ccc(/C=N/N=C/c2ccc(O)c(O)c2)cc1O
survivor count [8]: 8 of 10

CN(C)CCNc1ccc([N+](=O)[O-])c2sc3ccccc3c(=O)c12
T/C [2]: 133 % of control
T/C [6]: 140 and 148 % of control

CN1CCN(c2ccc3nc(-c4ccc5nc(-c6ccc(O)cc6)[nH]c5c4)[nH]c3c2)CC1
survivor count [3]: 10 of 10
survivor count [9]: 10 of 10
survivor count [10]: 9 of 9

C=C(NC(=O)C(=C)NC(=O)c1csc(C2=NC3c4csc(n4)C4NC(=O)c5csc(n5)C(C(C)(O)C(C)O)NC(=O)C5CSC(=N5)/C(=C/C)NC(=O)C(C(C)O)NC(=O)c5csc(n5)C3(CC2)NC(=O)C(C)NC(=O)C(=C)NC(=O)C(=C)NC(=O)C(C(C)C)NC2C=Cc3c(C(C)O)cc(nc3C2O)C(=O)OC4C)n1)C(N)=O (configuration not stated)
T/C [9]: 126 % of control

O=C1C=CC(=O)O1 (tested in a mixture with another compound)
T/C (dose: 50.0 mg/kg/injection, schedule: Q04DX003 (ip), vehicle: saline): 137 % of control
T/C [9]: 126 % of control
T/C [10]: 138 % of control
T/C (dose: 400.0 mg/kg/injection, schedule: Q04DX003 (ip), vehicle: saline): 128 and 136 % of control [8 of 10 alive]
survivor count (dose: 800.0 mg/kg/injection, schedule: Q04DX003 (ip), vehicle: saline): 8 of 10

S=C(NCNC(=S)c1ccncc1)c1ccncc1
survivor count (dose: 800.0 mg/kg/injection, schedule: Q01DX009 (ip), vehicle: saline with Tween-80): 4 of 10
